# Data taken from the supplement of paper PMC8728848.
# The other results are listed elsewhere or left out.
# Experiments:
# Assay in all cases: glycan array binding signal (z-score within array); higher = stronger binding
# Settings in all cases: glycan notation: IUPAC condensed, linker removed
# [1] = system: Fuc(a1-2)[Gal(a1-3)]Gal(b1-4)[Fuc(a1-3)]GlcNAc(b1-3)GalNAc
# Outline: (§1)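 Arrays were curated from the Consortium for Functional Glycomics database, 3228 in total, and kept only where the protein sequence was available. Binding is expressed as a within-array Z-score. This score was averaged across arrays of the same protein sequence at different concentrations or buffers and across linkers, and negative values can be read as non-binding.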
# [2] = system: Fuc(a1-2)[Gal(a1-3)]Gal(b1-4)[Fuc(a1-3)]GlcNAc
# Outline: as §1
# [3] = system: Fuc(a1-2)[Gal(a1-3)]Gal(b1-4)[Fuc(a1-3)]Glc
# Outline: as §1
# [4] = system: Fuc(a1-2)[Gal(a1-3)]Gal
# Outline: as §1
# [5] = system: Fuc(a1-2)[Gal(a1-4)]Gal(b1-4)GlcNAc
# Outline: as §1
# [6] = system: Fuc(a1-2)[GalNAc(a1-3)]Gal(b1-3)GalNAc(a1-3)[Fuc(a1-2)]Gal(b1-4)GlcNAc
# Outline: as §1
# [7] = system: Fuc(a1-2)[GalNAc(a1-3)]Gal(b1-3)GalNAc(b1-3)Gal(a1-4)Gal(b1-4)Glc
# Outline: as §1
# [8] = system: Fuc(a1-2)[GalNAc(a1-3)]Gal(b1-3)GlcNAc(b1-2)Man(a1-3)[Fuc(a1-2)[GalNAc(a1-3)]Gal(b1-3)GlcNAc(b1-2)Man(a1-6)]Man(b1-4)GlcNAc(b1-4)GlcNAc
# Outline: as §1
# [9] = system: Fuc(a1-2)[GalNAc(a1-3)]Gal(b1-3)GlcNAc(b1-2)Man(a1-3)[Fuc(a1-2)[GalNAc(a1-3)]Gal(b1-3)GlcNAc(b1-2)Man(a1-6)]Man(b1-4)GlcNAc(b1-4)[Fuc(a1-6)]GlcNAc
# Outline: as §1
# [10] = system: Fuc(a1-2)[GalNAc(a1-3)]Gal(b1-3)GlcNAc(b1-3)GalNAc
# Outline: as §1
# [11] = system: Fuc(a1-2)[GalNAc(a1-3)]Gal(b1-3)GlcNAc(b1-6)GalNAc
# Outline: as §1
# [12] = system: Fuc(a1-2)[GalNAc(a1-3)]Gal(b1-3)GlcNAc
# Outline: as §1
# [13] = system: Fuc(a1-2)[GalNAc(a1-3)]Gal(b1-4)GlcNAc(b1-2)Man(a1-3)[Fuc(a1-2)[GalNAc(a1-3)]Gal(b1-4)GlcNAc(b1-2)Man(a1-6)]Man(b1-4)GlcNAc(b1-4)GlcNAc
# Outline: as §1
# [14] = system: Fuc(a1-2)[GalNAc(a1-3)]Gal(b1-4)GlcNAc(b1-2)Man(a1-3)[Fuc(a1-2)[GalNAc(a1-3)]Gal(b1-4)GlcNAc(b1-2)Man(a1-6)]Man(b1-4)GlcNAc(b1-4)[Fuc(a1-6)]GlcNAc
# Outline: as §1
# [15] = system: Fuc(a1-2)[GalNAc(a1-3)]Gal(b1-4)GlcNAc(b1-2)Man
# Outline: as §1
# [16] = system: Fuc(a1-2)[GalNAc(a1-3)]Gal(b1-4)GlcNAc(b1-3)Gal(b1-4)GlcNAc(b1-3)Gal(b1-4)GlcNAc
# Outline: as §1
# [17] = system: Fuc(a1-2)[GalNAc(a1-3)]Gal(b1-4)GlcNAc(b1-3)Gal(b1-4)GlcNAc
# Outline: as §1
# [18] = system: Fuc(a1-2)[GalNAc(a1-3)]Gal(b1-4)GlcNAc(b1-3)GalNAc
# Outline: as §1
# [19] = system: Fuc(a1-2)[GalNAc(a1-3)]Gal(b1-4)GlcNAc(b1-3)[Fuc(a1-2)[GalNAc(a1-3)]Gal(b1-4)GlcNAc(b1-6)]GalNAc
# Outline: as §1
# [20] = system: Fuc(a1-2)[GalNAc(a1-3)]Gal(b1-4)GlcNAc(b1-6)GalNAc
# Outline: as §1
# [21] = system: Fuc(a1-2)[GalNAc(a1-3)]Gal(b1-4)GlcNAc
# Outline: as §1
# [22] = system: Fuc(a1-2)[GalNAc(a1-3)]Gal(b1-4)Glc
# Outline: as §1
# [23] = system: Fuc(a1-2)[GalNAc(a1-3)]Gal(b1-4)[Fuc(a1-3)]GlcNAc(b1-3)GalNAc
# Outline: as §1
# [24] = system: Fuc(a1-2)[GalNAc(a1-3)]Gal(b1-4)[Fuc(a1-3)]GlcNAc
# Outline: as §1
# [25] = system: Fuc(a1-2)[GalNAc(a1-3)]Gal
# Outline: as §1
# [26] = system: Fuc(a1-2)[GalNAc(a1-4)]Gal(b1-4)GlcNAc
# Outline: as §1
# [27] = system: Fuc(a1-2)[GalNAc(b1-3)]Gal
# Outline: as §1
# [28] = system: Fuc(a1-3)GlcNAc
# Outline: as §1
# [29] = system: Fuc(a1-3)[Gal(b1-4)]Glc6S
# Outline: as §1
# [30] = system: Fuc(a1-3)[Gal(b1-4)]GlcNAc(b1-2)Man(a1-3)[Fuc(a1-3)[Gal(b1-4)]GlcNAc(b1-2)Man(a1-6)]Man(b1-4)GlcNAc(b1-4)GlcNAc
# Outline: as §1
# [31] = system: Fuc(a1-3)[Gal(b1-4)]GlcNAc(b1-2)Man(a1-3)[Fuc(a1-3)[Gal(b1-4)]GlcNAc(b1-2)Man(a1-6)]Man(b1-4)GlcNAc(b1-4)[Fuc(a1-6)]GlcNAc
# Outline: as §1
# [32] = system: Fuc(a1-3)[Gal(b1-4)]GlcNAc(b1-2)Man
# Outline: as §1
# [33] = system: Fuc(a1-3)[Gal(b1-4)]GlcNAc(b1-3)Gal(b1-3)[Fuc(a1-4)]GlcNAc
# Outline: as §1
# [34] = system: Fuc(a1-3)[Gal(b1-4)]GlcNAc(b1-3)Gal(b1-4)[Fuc(a1-3)]GlcNAc(b1-3)Gal(b1-4)[Fuc(a1-3)]GlcNAc
# Outline: as §1
# [35] = system: Fuc(a1-3)[Gal(b1-4)]GlcNAc(b1-3)Gal(b1-4)[Fuc(a1-3)]GlcNAc
# Outline: as §1
# [36] = system: Fuc(a1-3)[Gal(b1-4)]GlcNAc(b1-3)GalNAc
# Outline: as §1
# [37] = system: Fuc(a1-3)[Gal(b1-4)]GlcNAc(b1-6)GalNAc
# Outline: as §1
# [38] = system: Fuc(a1-3)[Gal(b1-4)]GlcNAc(b1-6)[Gal(b1-3)GlcNAc(b1-3)]Gal(b1-4)Glc
# Outline: as §1
# [39] = system: Fuc(a1-3)[Gal(b1-4)]GlcNAc6S
# Outline: as §1
# [40] = system: Fuc(a1-3)[Gal(b1-4)]GlcNAc
# Outline: as §1
# [41] = system: Fuc(a1-3)[Gal3S(b1-4)]GlcNAc6S
# Outline: as §1
# [42] = system: Fuc(a1-3)[Gal3S(b1-4)]GlcNAc
# Outline: as §1
# [43] = system: Fuc(a1-3)[Gal3S(b1-4)]Glc
# Outline: as §1
# [44] = system: Fuc(a1-3)[GalNAc(b1-4)]GlcNAc6S
# Outline: as §1
# [45] = system: Fuc(a1-3)[GalNAc(b1-4)]GlcNAc
# Outline: as §1
# [46] = system: Fuc(a1-4)GlcNAc
# Outline: as §1
# [47] = system: Fuc(b1-3)GlcNAc
# Outline: as §1
# [48] = system: Gal(a1-2)Gal
# Outline: as §1
# [49] = system: Gal(a1-3)Gal(b1-3)GlcNAc(b1-2)Man(a1-3)[Gal(a1-3)Gal(b1-3)GlcNAc(b1-2)Man(a1-6)]Man(b1-4)GlcNAc(b1-4)GlcNAc
# Outline: as §1
# [50] = system: Gal(a1-3)Gal(b1-3)GlcNAc(b1-2)Man
# Outline: as §1
# [51] = system: Gal(a1-3)Gal(b1-3)GlcNAc(b1-3)GalNAc
# Outline: as §1
# [52] = system: Gal(a1-3)Gal(b1-3)GlcNAc(b1-6)GalNAc
# Outline: as §1
# [53] = system: Gal(a1-3)Gal(b1-3)GlcNAc
# Outline: as §1
# [54] = system: Gal(a1-3)Gal(b1-3)[Fuc(a1-4)]GlcNAc(b1-2)Man(a1-3)[Gal(a1-3)Gal(b1-3)[Fuc(a1-4)]GlcNAc(b1-2)Man(a1-6)]Man(b1-4)GlcNAc(b1-4)GlcNAc
# Outline: as §1
# [55] = system: Gal(a1-3)Gal(b1-4)GlcNAc(b1-2)Man(a1-3)[Gal(a1-3)Gal(b1-4)GlcNAc(b1-2)Man(a1-6)]Man(b1-4)GlcNAc(b1-4)GlcNAc
# Outline: as §1
# [56] = system: Gal(a1-3)Gal(b1-4)GlcNAc(b1-2)Man
# Outline: as §1
# [57] = system: Gal(a1-3)Gal(b1-4)GlcNAc(b1-3)GalNAc
# Outline: as §1
# [58] = system: Gal(a1-3)Gal(b1-4)GlcNAc(b1-6)GalNAc
# Outline: as §1
# [59] = system: Gal(a1-3)Gal(b1-4)GlcNAc
# Outline: as §1
# [60] = system: Gal(a1-3)Gal(b1-4)Glc
# Outline: as §1
# [61] = system: Gal(a1-3)Gal(b1-4)[Fuc(a1-3)]GlcNAc(b1-2)Man(a1-3)[Gal(a1-3)Gal(b1-4)[Fuc(a1-3)]GlcNAc(b1-2)Man(a1-6)]Man(b1-4)GlcNAc(b1-4)GlcNAc
# Outline: as §1
# [62] = system: Gal(a1-3)Gal(b1-4)[Fuc(a1-3)]GlcNAc
# Outline: as §1
# [63] = system: Gal(a1-3)GalNAc
# Outline: as §1
# [64] = system: Gal(a1-3)Gal
# Outline: as §1
substance,measurement,setting,value
MpAFP RI GFP (Marinomonas primoryensis),glycan array binding signal (z-score),[1],-0.471
same,glycan array binding signal (z-score),[2],-0.51
same,glycan array binding signal (z-score),[3],-0.473
same,glycan array binding signal (z-score),[4],-0.323
same,glycan array binding signal (z-score),[5],0.24
same,glycan array binding signal (z-score),[6],-0.633
same,glycan array binding signal (z-score),[7],0.098
same,glycan array binding signal (z-score),[8],-0.022
same,glycan array binding signal (z-score),[9],-0.477
same,glycan array binding signal (z-score),[10],0.48
same,glycan array binding signal (z-score),[11],-0.706
same,glycan array binding signal (z-score),[12],0.243
same,glycan array binding signal (z-score),[13],0.063
same,glycan array binding signal (z-score),[14],0.602
same,glycan array binding signal (z-score),[15],-0.489
same,glycan array binding signal (z-score),[16],0.122
same,glycan array binding signal (z-score),[17],-0.288
same,glycan array binding signal (z-score),[18],-0.581
same,glycan array binding signal (z-score),[19],-0.593
same,glycan array binding signal (z-score),[20],-0.439
same,glycan array binding signal (z-score),[21],-0.635
same,glycan array binding signal (z-score),[22],-0.56
same,glycan array binding signal (z-score),[23],0.179
same,glycan array binding signal (z-score),[24],0.147
same,glycan array binding signal (z-score),[25],-0.389
same,glycan array binding signal (z-score),[26],-0.557
same,glycan array binding signal (z-score),[27],-0.514
same,glycan array binding signal (z-score),[28],0.406
same,glycan array binding signal (z-score),[29],0.905
same,glycan array binding signal (z-score),[30],-0.659
same,glycan array binding signal (z-score),[31],0.556
same,glycan array binding signal (z-score),[32],0.027
same,glycan array binding signal (z-score),[33],0.725
same,glycan array binding signal (z-score),[34],-0.048
same,glycan array binding signal (z-score),[35],0.341
same,glycan array binding signal (z-score),[36],-0.127
same,glycan array binding signal (z-score),[37],-0.034
same,glycan array binding signal (z-score),[38],0.087
same,glycan array binding signal (z-score),[39],1.46
same,glycan array binding signal (z-score),[40],-0.299
same,glycan array binding signal (z-score),[41],-0.26
same,glycan array binding signal (z-score),[42],-0.585
same,glycan array binding signal (z-score),[43],-0.612
same,glycan array binding signal (z-score),[44],-0.258
same,glycan array binding signal (z-score),[45],0.371
same,glycan array binding signal (z-score),[46],0.716
same,glycan array binding signal (z-score),[47],0.355
same,glycan array binding signal (z-score),[48],-0.305
same,glycan array binding signal (z-score),[49],0.574
same,glycan array binding signal (z-score),[50],-0.538
same,glycan array binding signal (z-score),[51],-0.383
same,glycan array binding signal (z-score),[52],-0.768
same,glycan array binding signal (z-score),[53],-0.702
same,glycan array binding signal (z-score),[54],2.56
same,glycan array binding signal (z-score),[55],0.155
same,glycan array binding signal (z-score),[56],-0.409
same,glycan array binding signal (z-score),[57],-0.564
same,glycan array binding signal (z-score),[58],-0.171
same,glycan array binding signal (z-score),[59],-0.748
same,glycan array binding signal (z-score),[60],-0.137
same,glycan array binding signal (z-score),[61],1.33
same,glycan array binding signal (z-score),[62],-0.5
same,glycan array binding signal (z-score),[63],-0.245
same,glycan array binding signal (z-score),[64],-0.551

# Not a retest: entries from further up.
substance,measurement,setting,value
MpAFP RI GFP (Marinomonas primoryensis),glycan array binding signal (z-score),[47],0.355
same,glycan array binding signal (z-score),[48],-0.305
same,glycan array binding signal (z-score),[49],0.574
